From publication PMC6277997
These are yes or no findings as the source states them, for the method shown. Binding seen in cells or lysates may run through a third protein. Some results given as binding are weak or reduced against the parent protein; the word gives no strength.

Target: T1, DMTN core domain (226-336aa) (human) (UniProt Q08495)
T1 sequence: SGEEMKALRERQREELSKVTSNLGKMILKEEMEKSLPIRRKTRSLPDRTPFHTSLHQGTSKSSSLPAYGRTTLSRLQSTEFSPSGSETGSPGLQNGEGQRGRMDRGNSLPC
Test: pull-down; GST pull-down; purified GST fusion proteins used as bait; DMTN core domain with an HA tag, ARHGEF2 DH domain with a flag tag

binding: binds
B1: ARHGEF2 DH domain (domain or fragment, UniProt Q92974 235-432)
chain: KQQDVIYELIQTELHHVRTLKIMTRLFRTGMLEELHLEPGVVQGLFPCVDELSDIHTRFLSQLLERRRQALCPGSTRNFVIHRLGDLLISQFSGPSAEQMCKTYSEFCSRHSKALKLYKELYARDKRFQQFIRKVTRPAVLKRHGVQECILLVTQRITKYPLLISRILQHSHGIEEERQDLTTALGLVKELLSNVDEG
